This note sets out measurements from patent US6762284.

No constants are given. Whether binding was seen depends on the method and setting. Binding can be weak; no strength is given.

In the test the target is p85 inter SH2 domain (AA 435-620) (human). In words: yeast two-hybrid.

B1: PIKAP AA 517-589 (protein, not shown: large carriers)
chain: DRLIALKAVTNFGVPVEVFDSEEAEIFQKKLDETTRLLRELQEAQNERLSTRPPGNMICLLGPSSEKCILLNK
With B1, the binding entry was “binds”.

B2: PIKAP AA 277-589 (protein, not shown: large carriers)
chain: EDSGDAEAHAFKSPSKENKKKDKDMLEDKFKSNNLEREQEQLDRIVKESGGKLTRRLVNSQCEFERRKPDGTTTLGLLHPVDPIVGEPGYCLVRLGMTTGRLQSGVNTLQGFKEDKRNKVTPVLYLNYGPYSSYAPHYDSTFANISKDDSDLIYSTYGEDSDLPSDFSIHEFLATCQDYPYVMADSLLDVLTKGGHSRTLQEMEMSLPEDEGHTRTLDTGKEMEQITEVEPPGRLDSSTQDRLIALKAVTNFGVPVEVFDSEEAEIFQKKLDETTRLLRELQEAQNERLSTRPPGNMICLLGPSSEKCILLNK
Regarding B2, the binding entry is “binds”.
